Measured values published in US20170209579A1, “NON-INVASIVE RADIOFREQUENCY FIELD TREATMENT FOR CANCER THERAPY” (Baylor College of Medicine, priority 2014, published 2017).
At least one structure is not confirmed: it was looked up by name or label, or the drawing left a doubt.

Tested on: Hep3B cells
Test: Clonogenic assay, Hep3B cells
Type: cell-based, human
Details: mirin 25 μM
Description: Clonogenic assay estimates single-cell reproductive viability by measuring the ability of a single cell to form a colony of 50 cells or more. Clonogenic assay in this study was performed as described previously (Franken et al., 2006). Briefly, cancer cells from an exponentially growing, sub-confluent culture were trypsinized and harvested. Approximately 200 cells were counted and plated in each well of a 6-well plate. Approximately 12 hours later, the cells were adherent and treatment conditions were introduced as described herein. After varying treatments, media was replaced and cells were allowed 14 days to form colonies. Subsequently, the media was aspirated and cells were washed with PBS once. Colonies were then fixed with glutaraldehyde (6.0% v/v) and stained with crystal violet (0.5% w/v) for 30 minutes on a leveled shaker at 50 RPM. The fixation and staining solution was then aspirated and the 6-well plates were air-dried after gentle rinsing with tap water. The number of colonies in each well was counted using a colony counting grid. […]
Clonogenic assays were performed on Hep3B cells and SNU449 cells after one of two combinations of hyperthermia and gemcitabine compared with hyperthermia or gemcitabine alone. […] Next, clonogenic viability was evaluated at a gemcitabine concentration of 5 ng/ml and varied the duration of hyperthermia (30 minutes to 4 hours). […]

N=C1NC(=O)/C(=C/c2ccc(O)cc2)S1 [mirin]
effect of adding hyperthermia to mirin + gemcitabine on clonogenic toxicity: did not enhance this toxicity
